# Test results reported in PubChem BioAssay AID1671190 (National Center for Advancing Translational Sciences (NCATS), 2021).
# The chains behind the UniProt entries cited, without tags or fusion partners. Where a name states a change or a piece, a line headed by the entry shows the natural chain unless it says otherwise.
# UniProt P18054: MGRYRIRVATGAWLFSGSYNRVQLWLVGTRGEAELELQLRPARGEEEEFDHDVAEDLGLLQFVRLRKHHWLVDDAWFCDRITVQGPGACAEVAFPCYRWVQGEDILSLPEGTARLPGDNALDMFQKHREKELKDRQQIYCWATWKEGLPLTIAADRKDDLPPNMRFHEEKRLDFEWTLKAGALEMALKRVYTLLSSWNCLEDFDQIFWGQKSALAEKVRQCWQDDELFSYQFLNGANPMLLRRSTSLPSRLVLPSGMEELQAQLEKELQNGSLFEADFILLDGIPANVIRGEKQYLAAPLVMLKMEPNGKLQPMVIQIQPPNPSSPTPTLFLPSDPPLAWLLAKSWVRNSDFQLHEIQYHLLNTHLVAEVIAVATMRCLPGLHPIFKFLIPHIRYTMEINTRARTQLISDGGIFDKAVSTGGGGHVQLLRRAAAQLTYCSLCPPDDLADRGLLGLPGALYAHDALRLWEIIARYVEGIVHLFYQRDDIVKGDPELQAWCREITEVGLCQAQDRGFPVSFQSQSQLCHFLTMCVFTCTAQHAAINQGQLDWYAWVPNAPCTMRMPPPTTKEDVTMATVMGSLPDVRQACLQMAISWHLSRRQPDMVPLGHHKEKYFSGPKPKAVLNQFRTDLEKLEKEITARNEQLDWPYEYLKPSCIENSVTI
# Values joined by “and” are separate entries in the source; they are usually repeats but may differ in a detail not shown here. Equal values may be shown once. About 6,100 (1.1%) of roughly 580,000 compounds were called active. Inconclusive means that the source gave no clear call. Such entries were picked first, then a sample of the others. The call rests on the fitted dose curve; in most records, active means well fitted inhibition curve with a large enough effect; inconclusive means small, poorly fitted or top-dose-only effect, or another doubt; inactive means no such curve, though single readings can be large or run the other way. Potencies of inconclusive entries are doubtful fits and often do not repeat.
# Target: Polyunsaturated fatty acid lipoxygenase ALOX12 (Homo sapiens) (UniProt P18054)
# Test: Primary qHTS assay for inhibitors of human arachidonate 12S-lipoxygenase (ALOX12): Round 2
# Conditions: purified 12hLO, xylenol orange hydroperoxide absorbance; series mostly up to 108 µM
# Method in brief: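 Purified human 12hLO at 150 nM in 25 mM Hepes, 0.01% Triton X-100, pH 7.0, preincubated 15 min at room temperature with compound. Reaction started with 40 uM arachidonic acid, 30 min at room temperature. Hydroperoxide measured by Fe-xylenol orange, 573/405 nm absorbance ratio.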
# Potency means the concentration at half of the fitted maximal effect.
row,SMILES,Potency
1,COc1ccc(/C=C/c2nc(S(=O)(=O)c3ccccc3)c(NCCCN(C)C)o2)cc1OC,inactive
2,COCCNC(=O)C[C@@H]1C[C@H]2O[C@H](CNC(=O)NC(C)C)[C@@H](O)[C@H]2O1,"inconclusive: 31.6 µM [inhibitor, single point]"
3,CCOC(=O)[C@]12CCC=C1N(Cc1ccc(Cl)cc1Cl)C(=O)[C@H](CC(=O)N1CCCC1)C2,"inconclusive: 50.1 µM [inhibitor, partial curve, poor fit]"
4,Cc1ccc2nc(NC(=O)CSc3nc(=O)n(CCCN(C)C)c4c3CCC4)sc2c1,"inconclusive: 79.4 µM [inhibitor, single point]"
5,S=C(NCCc1ccccc1)NC1CC2CCC(C1)N2Cc1ccccc1 (centres undefined),"inconclusive: 79.4 µM [inhibitor, single point]"
6,Cc1nn(-c2ccccc2[N+](=O)[O-])c(C)c1[C@@H]1C=C[C@@H](NCc2ccc(C(C)C)cc2)C1,"inconclusive: 79.4 µM [inhibitor, partial curve]"
7,Cc1ccnc(NC(=O)c2cc(S(=O)(=O)N3CCCCC3)ccc2Cl)c1,"inconclusive: 44.7 µM [inhibitor, partial curve, poor fit]"
8,S=c1[nH]nc(-c2ccco2)n1/N=C/c1ccc(Cl)cc1Cl,"inconclusive: 14.1 µM [inhibitor, partial curve, poor fit]"
9,COc1ccc(-c2ocnc2C(=O)NCc2cc(OC)ccc2OC)cc1,"inconclusive: 50.1 µM [inhibitor, partial curve, poor fit]"
10,Cc1cc(/C=C/C(=O)c2ccc(O)cc2)cc(C)c1O,"inconclusive: 158 µM [inhibitor, single point]"
11,O=C(NNC(=S)Nc1ccc(Cl)cc1Cl)c1ccc(Cl)c(Cl)c1,"inconclusive: 7.94 µM [inhibitor, partial curve, poor fit]"
12,CCN(CC)C(=O)CSc1nc(-c2ccccc2)c(-c2ccccc2)o1,inactive
13,O=C(C[n+]1ccc(C(=O)c2ccccc2)cc1)Nc1ccc(C(F)(F)F)cc1,"inconclusive: 56.2 µM [inhibitor, partial curve, poor fit]"
14,O=S1(=O)C[C@@H](N2CC[C@@H](O)C2)[C@H](COCc2ccccc2)N1,"inconclusive: 79.4 µM [inhibitor, single point]"
15,CC1CC(C)CN(CC(=O)O)C1 (centres undefined),"inconclusive: 5.62 µM [inhibitor, full curve, poor fit]"
16,CCOC(=O)c1sc(NC(=O)c2cccc(S(=O)(=O)N3CCOCC3)c2)cc1C,"inconclusive: 50.1 µM [inhibitor, single point]"
17,CC(C)(C)c1ccc(C(=O)NC(=S)Nc2sc3c(c2C#N)CCC3)cc1,"inconclusive: 44.7 µM [inhibitor, partial curve, poor fit]"
18,CC1(C)CC(=O)C2=C(C1)OC(N)=C(C#N)C2c1c2ccccc2cc2ccccc12 (centres undefined),"inconclusive: 5.01 µM [inhibitor, full curve, poor fit]"
19,COc1ccc(Cl)cc1S(=O)(=O)NCCO,"inconclusive: 0.562 µM [inhibitor, full curve, poor fit]"
20,Cc1cccc(CS(=O)Cc2ccc(Cl)cc2)c1 (centres undefined),inactive
21,CCOc1ccc(CN(C)Cc2cc(C(C)(C)C)c(O)c(C(C)(C)C)c2)cc1OC,"inconclusive: 39.8 µM [inhibitor, partial curve, poor fit]"
22,O=[N+]([O-])c1ccc(C=NN2CCNC2=S)o1,"inconclusive: 44.7 µM [inhibitor, partial curve, poor fit]"

# Retrieved by structure from the entries so far:
row,SMILES,Potency
20,Cc1cccc(CS(=O)Cc2ccc(Cl)cc2)c1 (centres undefined),inactive
17,CC(C)(C)c1ccc(C(=O)NC(=S)Nc2sc3c(c2C#N)CCC3)cc1,"inconclusive: 44.7 µM [inhibitor, partial curve, poor fit]"
15,CC1CC(C)CN(CC(=O)O)C1 (centres undefined),"inconclusive: 5.62 µM [inhibitor, full curve, poor fit]"
13,O=C(C[n+]1ccc(C(=O)c2ccccc2)cc1)Nc1ccc(C(F)(F)F)cc1,"inconclusive: 56.2 µM [inhibitor, partial curve, poor fit]"

# (continued)

row,SMILES,Potency
1,O=[N+]([O-])c1ccc(N/N=C\c2ccccc2OCc2ccccc2)cc1,"inconclusive: 112 µM [inhibitor, single point]"
2,O=C(/C=C/c1ccccc1)CCN1CCOCC1,inactive
3,Cc1ccccc1NC1=C/C(=N\S(=O)(=O)c2ccc(C(=O)O)cc2)c2ccccc2C1=O,"inconclusive: 0.708 µM [inhibitor, full curve, poor fit]"
4,O=C(COC(=O)Cc1ccc(F)cc1)NCc1ccco1,inactive
5,O=C1CCCCCN1Sc1ccccc1,active: 15.8 µM
6,CC(C)NC1CCC(Nc2ccnc3cc(Cl)ccc23)CC1 (centres undefined),"inconclusive: 2.82 µM [inhibitor, full curve]"
7,O=C(COc1ccc(Br)cc1F)OCC(=O)N1CCNC1=O,inactive
8,C#CCOc1ccc(/C=C2/C(=O)N(c3ccc(S(N)(=O)=O)cc3)N=C2C)cc1OC,"inconclusive: 63.1 µM [inhibitor, partial curve, poor fit]"
9,NC(N)=Nc1nc(-c2ccccc2)c2cc(Cl)ccc2n1,"inconclusive: 35.5 µM [inhibitor, single point]"
10,O=[N+]([O-])c1ccc(N=Nc2c(O)[nH]c3ccc(F)cc23)cc1,inactive
11,CN(Cc1ccccc1NC(=O)C1(C)CC1(Cl)Cl)C1CCCCC1 (centres undefined),inactive
12,Cc1ccc(CN2CCC(CNC(=O)c3ccc(NC(=O)C4=CSCCO4)cc3)CC2)cc1,"inconclusive: 31.6 µM [inhibitor, partial curve, poor fit]"
13,Cc1ccccc1NC(=O)CCC(=O)N/N=C/c1cc([N+](=O)[O-])ccc1O,"inconclusive: 56.2 µM [inhibitor, partial curve, poor fit]"
14,Cc1cc(C)n(Cc2ccc(C(=O)NN)o2)n1,"inconclusive: 50.1 µM [inhibitor, partial curve, poor fit]"
15,CC1=C(C(=O)Nc2ccccc2)C(c2cccc(O)c2)n2nc(-c3ccccc3Cl)nc2N1 (centres undefined),"inconclusive: 89.1 µM [inhibitor, single point]"
16,Cn1cc(S(=O)(=O)N2CCCCCC2)cc1C(=O)NCc1ccc(Cl)cc1,inactive
17,COCCn1c(C)c(C)c2c(NCCc3ccccc3)ncnc21,"inconclusive: 0.447 µM [inhibitor, full curve, poor fit]"
18,CCOC(=O)N1CCN(CC(=O)Nc2ccc(C)c(Br)c2)CC1,"inconclusive: 0.891 µM [inhibitor, full curve, poor fit]"
19,Cc1ccc(-c2csc3ncnc(OCC(=O)NC(=O)NCc4ccco4)c23)cc1,"inconclusive: 100 µM [inhibitor, partial curve, poor fit]"
20,FC(F)(F)c1ccccc1NC(=S)NN=C1CCCCCC1,"inconclusive: 50.1 µM [inhibitor, partial curve, poor fit]"
21,CC(C)NC(=O)Nc1ccc2c(c1)C(=O)N([C@H](C)CO)C[C@H](C)[C@@H](CN(C)Cc1ccc(C(F)(F)F)cc1)OCCCC[C@H](C)O2,inactive
22,O=C(Cc1n[nH]c(=O)c2ccccc12)OCC(=O)c1ccc(F)c(F)c1,"inconclusive: 50.1 µM [inhibitor, partial curve, poor fit]"

row,SMILES,Potency
1,COCc1cc(C[C@H]2CNCC[C@H]2CC(=O)NCc2ccccc2OC)no1,"inconclusive: 126 µM [inhibitor, partial curve, poor fit]"
2,Cc1nn(C)cc1C(=O)N1C[C@@H](CO)[C@H](c2ccncc2)C1,active: 50.1 µM
3,CCCC(=O)N1CCC1(C)C(=O)NS(=O)(=O)c1ccc(Cl)cc1 (centres undefined),"inconclusive: 3.98 µM [inhibitor, full curve]"
4,CCOc1ccccc1OCc1nn2c(COc3ccccc3)nnc2s1,"inconclusive: 7.94 µM [inhibitor, full curve, poor fit]"
5,CN(C)CCCN(C(=O)c1ccc(C(=O)c2ccccc2)cc1)c1nc2c(F)cccc2s1,"inconclusive: 50.1 µM [inhibitor, partial curve, poor fit]"
6,CCc1nc(C)c(C(=O)N2C[C@H]3CC[C@@H]2CN(C(=O)c2ccccc2)C3)s1,inactive
7,c1ccc(OCCOCCN2CCOCC2)cc1,inactive
8,O=C(Nc1ccc(-c2nc3ccccc3s2)cc1)C1CCN(C(=O)c2ccco2)CC1,inactive
9,COc1ccc2cc(-c3csc(Nc4ccc(F)cc4)n3)c(=O)oc2c1,"inconclusive: 31.6 µM [inhibitor, partial curve]"
10,CCC/C=C(/CC)C[N+]1(C)CCCCC1,"inconclusive: 17.8 µM [inhibitor, partial curve, poor fit]"
11,O=C(Nc1ccc(Cl)c(Cl)c1)Oc1ccc(NC(=O)c2ccco2)cc1,inactive
12,Cc1cc(=O)n(-c2ccccc2)n1C,"inactive and inconclusive: 50.1 µM [inhibitor, partial curve, poor fit]"
13,Cc1cc(N(CCO)CCO)nc(NCc2ccccc2)n1,"inconclusive: 6.31 µM [inhibitor, full curve, poor fit]"
14,O=C1CCN(Cc2ccc(Br)cc2)CCN1[C@H](CO)Cc1ccccc1,inactive
15,Brc1ccc(CNCCCSc2nnnn2-c2ccccc2)cc1,"inconclusive: 44.7 µM [inhibitor, partial curve, poor fit]"
16,C[C@H](NC(=O)[C@H]1N2C(=O)c3ccccc3C2SC1(C)C)C(=O)NCc1ccc(F)cc1 (some centres undefined),inactive
17,CC(=O)NCC(=O)N1Cc2ccccc2CC2(CCCN2Cc2cccnc2)C1 (centres undefined),"inconclusive: 89.1 µM [inhibitor, partial curve, poor fit]"
18,CCOC(=O)c1sc(Nc2cccc(C)c2)nc1C(F)(F)F,"inconclusive: 39.8 µM [inhibitor, partial curve, poor fit]"
19,O=C(Nc1cccc(C(F)(F)F)c1)c1nc2c(o1)CCN(Cc1cccc(F)c1)CC2,inactive
20,CC(=O)Nc1ccc(C)cc1-c1nc2ccccc2n(CC(=O)c2ccc(Cl)cc2)c1=O,"inconclusive: 50.1 µM [inhibitor, partial curve, poor fit]"
